Test results: PubChem BioAssay AID1439 (NMMLSC, 2008)
Screen size: about 220,000 compounds; about 770 (0.35%) were called active. The inconclusive results got no clear call from the source; some entries with a clear call stand among them for comparison. No stated cut-off is given here; in the data, active means binding response below about 49% or above about 150%; inconclusive means no clear call, values can overlap the other calls; inactive means in between.

Amino acid sequences for entries named in this document (tags omitted).
UniProt P09471, whole entry, looked up: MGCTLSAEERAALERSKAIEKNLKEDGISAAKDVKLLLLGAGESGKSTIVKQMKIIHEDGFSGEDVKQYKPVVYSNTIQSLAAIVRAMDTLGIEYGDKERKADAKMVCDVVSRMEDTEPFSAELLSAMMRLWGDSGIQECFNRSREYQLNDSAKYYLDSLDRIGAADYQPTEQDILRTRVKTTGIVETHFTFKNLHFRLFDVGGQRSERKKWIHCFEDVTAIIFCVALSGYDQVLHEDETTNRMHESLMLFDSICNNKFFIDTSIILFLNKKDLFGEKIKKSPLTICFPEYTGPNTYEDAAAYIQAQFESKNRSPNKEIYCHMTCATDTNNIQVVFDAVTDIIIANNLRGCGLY

Each molecule was assayed against Guanine nucleotide-binding protein G(o) subunit alpha (Homo sapiens) (UniProt P09471) (assay: RGS7-Galphao binding modulators, primary screen, biochemical, multiplexed bead flow cytometry (AID 1439;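 further: fluorescent Galphao held in activated GDP-AlF4 state binding bead-coupled RGS7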)). Conditions: at 10 µM, actives lie on both sides.

Row | Structure (SMILES) | binding response (% of control)
1 | CCc1cc(C(=O)Nc2cc(S(=O)(=O)N(C)C)ccc2C)sc1C | inconclusive: 106%
2 | CCOc1ccc2c(c1)S/C(=C\c1cccs1)C(=O)N2 | inconclusive: 115%
3 | CC(=O)Nc1ccc(SC[C@H](c2ccccc2)N2CCN(CCc3ccccc3)CCC2=O)cc1 | inconclusive: 96%
4 | CCOc1ccc(NN=C(C(=O)OC)C(=O)OC)c([N+](=O)[O-])c1 | inconclusive: 91.1%
5 | Cn1cnnc1SCC(=O)NCCc1ccc(Cl)cc1Cl | inconclusive: 105%
6 | CCCCN(Cc1cc2cccc(C)c2[nH]c1=O)S(C)(=O)=O | inconclusive: 15.2%
7 | CC(=O)Oc1ccc2cc(-c3ccccc3)c(=O)oc2c1 | inconclusive: 310%
8 | COc1ccc(N=C2NC(=O)/C(=C/c3ccco3)S2)cc1 | inconclusive: 110%
9 | CC(/C=N/NC(=O)c1nnn(-c2nonc2N)c1CN(C)C)=C\c1ccco1 | inconclusive: 86.9%
10 | Cc1c(NC(=O)c2cccnc2)c(=O)n(-c2ccccc2)n1C | inconclusive: 96.2%
11 | O=C(NS(=O)(=O)c1ccc(Cl)cc1)c1ccccc1 | inconclusive: 108%
12 | Cc1ccc(S(=O)(=O)Nc2ccc3nc(N)sc3c2)cc1 | inactive: 108%
13 | CC(C)(C)C1CCC(=NNc2nc3ccccc3[nH]2)CC1 (configuration not stated) | inconclusive: 98%
14 | Cc1cc(NC(=O)c2n[nH]c(=O)c3ccccc23)ccc1Br | inconclusive: 77.3%
15 | Cc1[nH]c(=O)[nH]c(=O)c1S(=O)(=O)N1CCC(C(=O)N2CCN(c3cccc(C(F)(F)F)c3)CC2)CC1 | inconclusive: 98.8%
16 | CC/S(=N\S(=O)(=O)c1ccc(C)cc1)c1ccccc1 (configuration not stated) | inconclusive: 127%
17 | CC1C(c2ccccc2)N(C)C(c2ccccc2)CC1(O)c1ccc(F)cc1 (configuration not stated) | inconclusive: 98.5%
18 | CN1CCN(NC(=O)CN2C(=O)S/C(=C\c3c(Cl)cccc3Cl)C2=O)CC1 | inactive: 104%
19 | CC(C)(C)[C@@H]1C=C(C(N)=O)O[C@H](OCc2ccc(CO)cc2)C1 | inconclusive: 104%
20 | COCCNC(=O)Cn1nc(C)c([N+](=O)[O-])c1C | inactive: 96.3%
21 | CCCCCCC(=O)N(O)C1CC(=O)N(c2ccc(F)cc2)C1=O (configuration not stated) | inconclusive: 52.6%
22 | COc1cccc(/C=C(/C(=O)OCC(=O)NC2CCCC(C)C2C)c2ccccc2)c1 (configuration not stated) | inactive: 97.8%
23 | O=C(CCn1nc(-c2ccc(Cl)cc2)c2ccccc2c1=O)Nc1cccnc1 | inactive: 103%

Looked up by structure from the entries so far (five):
Row | Structure (SMILES) | binding response (% of control)
18 | CN1CCN(NC(=O)CN2C(=O)S/C(=C\c3c(Cl)cccc3Cl)C2=O)CC1 | inactive: 104%
14 | Cc1cc(NC(=O)c2n[nH]c(=O)c3ccccc23)ccc1Br | inconclusive: 77.3%
23 | O=C(CCn1nc(-c2ccc(Cl)cc2)c2ccccc2c1=O)Nc1cccnc1 | inactive: 103%
22 | COc1cccc(/C=C(/C(=O)OCC(=O)NC2CCCC(C)C2C)c2ccccc2)c1 (configuration not stated) | inactive: 97.8%
16 | CC/S(=N\S(=O)(=O)c1ccc(C)cc1)c1ccccc1 (configuration not stated) | inconclusive: 127%

Continuation:

Row | Structure (SMILES) | binding response (% of control)
24 | CCOC(=O)C1CCCN(/C=C2\SC(=S)N(CC)C2=O)C1 (configuration not stated) | inconclusive: 104%
25 | COc1ccc([C@H]2[C@H]3C=CC[C@@H](C)[C@@H]3C(=O)N2Cc2ccccc2)cc1Cl | inconclusive: 93.2%
26 | COC(=O)c1sccc1NC(=O)c1ccc(OC)cc1OC | inactive: 97%
27 | COc1ccc(C(=O)NCC(O)COc2ccc(C(C)(C)C)cc2)cc1[N+](=O)[O-] (configuration not stated) | inactive: 101%
28 | O=S(=O)(Nc1ncnc2scc(-c3ccc(F)cc3)c12)c1cc(F)ccc1F | inconclusive: 101%
29 | C/C(CC(=O)Nc1ccccn1)=N\NC(=O)c1ccc2ccccc2c1 | inactive: 105%
30 | NCCCC[C@H]1CN=C(N)N1CCC12CC3CC(CC(C3)C1)C2 | inconclusive: 105%
31 | CCOc1ccc(Nc2nc3ccccc3c(=O)s2)cc1 | inconclusive: 106%
32 | CCCCN1C(=O)c2ccc(C(=O)Nc3c(N)n(CCCC)c(=O)n(C)c3=O)cc2C1=O | inactive: 103%
33 | Cc1ncc(CO)c(/C=N/NC(=S)Nc2ccc(C(C)C)cc2)c1O | inconclusive: 101%
34 | Cc1ccnc2nc(C(=O)Nc3nc4ccccc4s3)nn12 | inconclusive: 192%
35 | Cc1cc(C(=O)N/N=C/C=C/c2ccc([N+](=O)[O-])cc2)n[nH]1 | inconclusive: 116%
36 | CCN(c1ccc(N=Cc2c(O)n(Cc3ccc(OC)cc3)c(=O)c3ccccc23)cc1)C(C)C | active: 163% [activator]
37 | COc1ccc(Nc2cc(=O)n(-c3ccccc3)c3c2c(=O)n(C)c(=O)n3C)cc1 | inconclusive: 140%
38 | Cn1c(CSCC(=O)Nc2ccccc2)nnc1SCc1ccccc1 | inconclusive: 137%
39 | O=C(CSc1nccc(-c2cccs2)n1)Nc1ccc(F)c(Cl)c1 | inconclusive: 80.9%
40 | CCOC(=O)c1c(NC(=O)C2CCCO2)sc(C(N)=O)c1C (configuration not stated) | inactive: 113%
41 | CC(C)Cc1csc(NC(=O)c2ccc(Br)cc2)c1C(=O)O | inconclusive: 86%
42 | COC(=O)c1ccc(S(=O)(=O)NCc2ccccc2)n1C | inconclusive: 96.5%
43 | COc1ccc(/C=N/Nc2nc(Nc3ccccc3)nc(N3CCCC3)n2)cc1 | inactive: 125%
44 | O=C(COC(=O)c1ccc2c(c1)OCO2)NCc1ccc2c(c1)OCO2 | inactive: 113%
45 | O=C(CC1NCCc2ccccc21)Nc1ccc(Cl)cc1 (configuration not stated) | inconclusive: 109%
46 | Cc1ccnc(NCn2nnc3ccccc32)c1 | inactive: 100%

Row | Structure (SMILES) | binding response (% of control)
47 | O=c1c2cn[nH]c2[nH]c(=S)n1-c1cccc(Cl)c1 | inactive: 101%
48 | O=C(COC(=O)c1ccc[nH]c1=O)NC1CCCCCC1 | inconclusive: 88.7%
49 | COc1ccc(NC(=O)CSc2nc(C)cs2)cc1 | inconclusive: 113%
50 | CC1(C)Cc2nc3sc(C(=O)NCCCO)c(N)c3cc2CS1 | inconclusive: 110%
51 | COc1ccc2nc(/C=N/NC(=O)CCCCCNC(=O)OC(C)(C)C)ccc2c1 | inconclusive: 108%
52 | Cc1cc(C)c(NC(=O)Cn2nnc(C(=O)NCc3ccco3)c2N)c(C)c1 | inconclusive: 101%
53 | CN(C)Cc1n[nH]c(=O)c2ccccc12 | inconclusive: 91.7%
54 | O=C(N/C=C/c1ccco1)OCc1ccccc1 | inconclusive: 97.4%
55 | CCSS(=O)(=O)c1cccc2cccnc12 | inconclusive: 49.1%
56 | CCCCCCC(=O)Nc1ccc(Br)cn1 | inconclusive: 96.8%
57 | CCOC(=O)c1sc2nc(C)nc(SCC(=O)N(C)C3CCS(=O)(=O)C3)c2c1C (configuration not stated) | inactive: 94%
58 | COC(=O)c1oc2ccccc2c1NC(=O)/C=C/C(=O)O | inactive: 92.2%
59 | CCN(Cc1ccccc1)C(=O)c1nn(-c2ccc(OC)cc2)c(=O)c2c1c1ccccc1n2C | inactive: 93.8%
60 | C=CCCCCCCCCC(=O)Nc1ncccn1 | inconclusive: 95.6%
61 | O=C(NN1C(=O)/C(=C/C=C/c2ccco2)SC1=S)c1ccccc1O | inconclusive: 122%
62 | CC1(C)Oc2ccc3ccc(=O)oc3c2-c2cnoc21 | inactive: 149%
63 | O=C(O)c1ccc2cccnc2c1O | inconclusive: 115%
64 | Cn1c(O)c(N=NC(=O)C2COc3ccccc3O2)c2ccccc21 (configuration not stated) | inconclusive: 170%
65 | COCCNc1oc(-c2cccs2)nc1S(=O)(=O)c1ccc(C)cc1 | inactive: 89.8%
66 | CCN1CCN(C(=O)c2cc(S(=O)(=O)Nc3ccc(S(C)(=O)=O)cc3)ccc2Cl)CC1 | inconclusive: 85.8%
67 | O=C(NC(=S)Nc1nc2ccc(F)cc2s1)c1ccco1 | inactive: 98.5%
68 | Cc1ccc(/C=N/N=C2\SCC(=O)N2CC2CC2)cc1 | inconclusive: 93.3%
69 | COc1cc(-c2cc(C(=O)NN3CCN(C)CC3)c3ccccc3n2)cc(OC)c1OC | inactive: 109%

Row | Structure (SMILES) | binding response (% of control)
70 | CC(C)(C)NS(=O)(=O)c1ccc(CCC(=O)NCc2ccc3c(c2)OCO3)cc1 | inactive: 101%
71 | O=C(Nc1ccncc1)C1CCN(S(=O)(=O)c2cccs2)CC1 | inconclusive: 84.4%
72 | Oc1ccc(/C=N/NC(=S)Nc2cccnc2)cc1 | inconclusive: 116%
73 | CCCc1cc(=O)[nH]c(SCC(=O)c2cc(C)n(-c3c(C)n(C)n(-c4ccccc4)c3=O)c2C)n1 | inconclusive: 101%
74 | CC1=CC=CN2C1=NC(=O)CC2(C)C(=O)N(CC(=O)NC1CCCC1)c1ccccc1C (configuration not stated) | inactive: 104%
75 | CCOC(=O)N1CCN(C(=O)CSc2ccc3nnc(CCNC(=O)c4ccccc4)n3n2)CC1 | inconclusive: 97.1%
76 | N[C@@H](Cc1c[nH]c2ccccc12)C(=O)O | inconclusive: 67.3%
77 | CCC(CC)C(=O)Nc1ccncc1 | inconclusive: 95.5%
78 | C=CCn1c(SCC(=O)c2ccc(O)c(O)c2)nnc1-c1cccnc1 | inconclusive: 106%
79 | COc1ccc(-c2cn[nH]c2C)cc1 | inconclusive: 94.2%
80 | COc1ccc2nccnc2c1[N+](=O)[O-] | inconclusive: 130%
81 | Cc1ccc(S(=O)(=O)N2CCC(C(=O)N3CCC[C@H]3C(=O)NC3CCS(=O)(=O)C3)CC2)cc1 (some centres not stated) | inactive: 90.5%
82 | CSc1nc2nc3c(cc2c(=O)n1-c1cccc(C)c1)COC(C)(C)C3 | inconclusive: 148%
83 | O=C(Cc1cccs1)N=Nc1c(O)[nH]c2ccc(Br)cc12 | inconclusive: 80.8%
84 | O=C(NCC(c1ccc(F)cc1)N1CCOCC1)c1c(F)cccc1F (configuration not stated) | inconclusive: 118%
85 | COc1cccc(C(=O)NC(c2ccccc2)C2CCCC2)c1 (configuration not stated) | inconclusive: 93.6%
86 | Cc1ccc(S(=O)(=O)N2CCN(C(C)CC(=O)O)CC2)cc1 (configuration not stated) | inconclusive: 94.7%
87 | O=C(NN1C(=O)/C(=C\c2cccnc2)SC1=S)c1ccco1 | inactive: 112%
88 | CN(CCOc1ccccc1)CC(=O)Nc1ccc(S(=O)(=O)N2CCCC2)cc1 | inconclusive: 87.2%
89 | CN(Cc1ccccc1)CC(O)COc1ccc(CNCc2ccc(Cl)s2)cc1 (configuration not stated) | inactive: 104%
90 | Cc1cc(Cl)ccc1OCC(O)CN1C(C)CCCC1C (configuration not stated) | inconclusive: 135%
91 | Cc1cc(-c2nc(C)c(C(=O)NNS(=O)(=O)c3ccc(Cl)cc3Cl)s2)no1 | inconclusive: -117%
92 | Cc1ccc(S(=O)(=O)NNC(=O)CC#N)cc1 | inconclusive: 146%
